Our source for the T/C and survivor count values is PubChem BioAssay AID330 (DTP/NCI, 2004).

This experiment deals with P388 leukemia ip, CD2F1 mice, survival T/C. Nature of the experiment: NCI In Vivo Anticancer Drug Screen. Data for tumor model P388 Leukemia (intraperitoneal) in CD2F1 (CDF1) mice. Conditions: T/C endpoint: median survival time, higher T/C = longer survival.
The mark [1] stands for this setting: dose: 50.0 mg/kg/injection, schedule: Q01DX009 (ip), vehicle: saline.
[2] abbreviates: dose: 100.0 mg/kg/injection, schedule: Q01DX009 (ip), vehicle: saline.
[3] abbreviates: dose: 200.0 mg/kg/injection, schedule: Q01DX009 (ip), vehicle: saline.
Setting [4] is: dose: 10.0 mg/kg/injection, schedule: Q01DX009 (ip), vehicle: Klucel (hydroxypropylcellulose) (HPC).
The mark [5] stands for this setting: dose: 20.0 mg/kg/injection, schedule: Q01DX009 (ip), vehicle: Klucel (hydroxypropylcellulose) (HPC).
[6] abbreviates: dose: 40.0 mg/kg/injection, schedule: Q01DX009 (ip), vehicle: Klucel (hydroxypropylcellulose) (HPC).
[7] abbreviates: dose: 200.0 mg/kg/injection, schedule: Q01DX005 (ip), vehicle: saline with Tween-80.

The list shows only some results of the screen, not a fair sample: its compounds were picked by chemical class. Not every dose and run of a compound is shown. T/C: endpoint of the treated group in % of that of the vehicle group. Some entries give survivors of the animals treated and no T/C: the source files T/C as zero there, which appears to mark a toxic dose or a test without result, not a measured value. Some doses without a T/C left all or most animals alive at the check, yet need not have been tolerated: the source hardly ever lists a survival T/C far under the control, and the zero likely stands for such cases as well. Survivors were counted at the toxicity check, usually on the fifth day, unless a day is given; later deaths do not show. Schedules are NCI's codes, taken here to give the interval after Q, in days (D) or hours (H), and the number of doses after X. For survival time, this PubChem deposit counts one and a half times the control or more as active, and values a quarter to a half above the control carry no call in these data; other NCI protocols may use other cut-offs. Some T/C values are followed by the survivors on the day toxicity was checked, most often the fifth; where neither a count nor a note follows, no animal had died by that day. Some entries were tested several times; the values are given in rising order. Some entries show no survivor count and are marked so; the dose need not have been tolerated.

For the compound `CC(N)(Cc1ccc(N(CCCl)CCCl)cc1)C(=O)O` (stereo unspecified), the T/C by setting is: (dose: 5.0 mg/kg/injection, schedule: Q04DX003 (ip), vehicle: other) 193 % of control; (dose: 5.0 mg/kg/injection, schedule: Q04DX003 (ip), vehicle: water) 160 % of control; (dose: 10.0 mg/kg/injection, schedule: Q04DX003 (ip), vehicle: other) 198 % of control; (dose: 10.0 mg/kg/injection, schedule: Q04DX003 (ip), vehicle: water) 169 % of control; (dose: 20.0 mg/kg/injection, schedule: Q04DX003 (ip), vehicle: other) 280 % of control; (dose: 20.0 mg/kg/injection, schedule: Q04DX003 (ip), vehicle: water) 221 % of control. For the same compound, the T/C by setting is: (dose: 40.0 mg/kg/injection, schedule: Q04DX003 (ip), vehicle: other) 318 % of control; (dose: 40.0 mg/kg/injection, schedule: Q04DX003 (ip), vehicle: water) 292 % of control; (dose: 80.0 mg/kg/injection, schedule: Q04DX003 (ip), vehicle: water) 91 % of control.

Regarding `O=P(NC1=NCCCC1)(Oc1ccccc1)Oc1ccccc1`, the T/C runs as follows: (dose: 12.5 mg/kg/injection, schedule: Q01DX009 (ip), vehicle: distilled water + Tween-80) 111 % of control; (dose: 25.0 mg/kg/injection, schedule: Q01DX009 (ip), vehicle: distilled water + Tween-80) 99 % of control. The survivor count was 3 of 6 (dose: 50.0 mg/kg/injection, schedule: Q01DX009 (ip), vehicle: distilled water + Tween-80) and 2 of 6 (dose: 100.0 mg/kg/injection, schedule: Q01DX009 (ip), vehicle: distilled water + Tween-80).

With `CN1CCC2(CC1)NC1CCN(C)CC1S2` (stereo unspecified), the T/C runs as follows: (dose: 60.0 mg/kg/injection, schedule: Q01DX005 (ip), vehicle: saline with Tween-80) 108 % of control; (dose: 120.0 mg/kg/injection, schedule: Q01DX005 (ip), vehicle: saline with Tween-80) 111 % of control [5 of 6 alive]. Besides, the survivor count (dose: 240.0 mg/kg/injection, schedule: Q01DX005 (ip), vehicle: saline with Tween-80) is recorded as 0 of 6.

Turning to `C1CC2COP(O1)O2` (stereo unspecified), the T/C runs as follows: under setting [1], 101 % of control; under setting [2], 100 % of control; under setting [3], 94 % of control.

Regarding `CCN(CCNCCCNCCSP(=O)(O)O)c1cccc(C)c1`, the T/C by setting is: (dose: 1.5 mg/kg/injection, schedule: Q01DX009 (ip), vehicle: saline with Tween-80) 100 % of control; (dose: 3.0 mg/kg/injection, schedule: Q01DX009 (ip), vehicle: saline with Tween-80) 104 % of control; (dose: 6.0 mg/kg/injection, schedule: Q01DX009 (ip), vehicle: saline with Tween-80) 109 % of control.

Regarding `CN(c1ccc(/C=C/c2ccccc2)cc1)P(=O)(Cl)Cl`, the T/C is 106 % of control (dose: 12.5 mg/kg/injection, schedule: Q04DX003 (ip), vehicle: saline); 101 % of control (dose: 25.0 mg/kg/injection, schedule: Q04DX003 (ip), vehicle: saline); 112 % of control (dose: 50.0 mg/kg/injection, schedule: Q04DX003 (ip), vehicle: saline).

In the case of `Cc1cccc(N(CCCl)CCCl)c1`, the T/C is, setting by setting: (dose: 5.0 mg/kg/injection, schedule: Q01DX009 (ip), vehicle: Klucel (hydroxypropylcellulose) (HPC)) 104 % of control; under setting [4], 114 and 144 % of control; under setting [5], 141 [4 of 6 alive] and 154 % of control; under setting [6], 178 and 184 % of control. The survivor count is, setting by setting: under setting [4], 0 of 6; under setting [5], 0 of 6; under setting [6], 0 of 6.

Regarding `CCOP(=O)(OCC)N(C)N=NC`, the T/C reads like this: (dose: 50.0 mg/kg/injection, schedule: Q01DX005 (ip), vehicle: saline) 103 % of control; (dose: 100.0 mg/kg/injection, schedule: Q01DX005 (ip), vehicle: saline) 98 % of control; (dose: 200.0 mg/kg/injection, schedule: Q01DX005 (ip), vehicle: saline) 103 % of control.

Regarding `CC(=O)OCC#CC[N+]1([O-])CCC(C)CC1` (stereo unspecified), the T/C is, setting by setting: (dose: 25.0 mg/kg/injection, schedule: Q04DX002 (ip), vehicle: saline) 107 % of control; (dose: 50.0 mg/kg/injection, schedule: Q04DX002 (ip), vehicle: saline) 100 % of control; (dose: 100.0 mg/kg/injection, schedule: Q04DX002 (ip), vehicle: saline) 98 [5 of 6 alive] and 112 % of control. For the same compound, the survivor count is 0 of 6 (dose: 200.0 mg/kg/injection, schedule: Q04DX002 (ip), vehicle: saline) and 1 of 6 (dose: 400.0 mg/kg/injection, schedule: Q04DX002 (ip), vehicle: saline).

Turning to `O=c1ccc2cc3ccoc3c(OP(=O)(Cl)N(CCCl)CCCl)c2o1` (stereo unspecified), the T/C was 109 % of control (dose: 25.0 mg/kg/injection, schedule: Q01DX005 (ip), vehicle: saline with Tween-80); 112 and 124 % of control (dose: 50.0 mg/kg/injection, schedule: Q01DX005 (ip), vehicle: saline with Tween-80); 119 and 128 % of control (dose: 100.0 mg/kg/injection, schedule: Q01DX005 (ip), vehicle: saline with Tween-80); 123 % of control under setting [7]. Moreover, the survivor count under setting [7] was 5 of 5.

As for `O=[N+]([O-])NCC(NN[N+](=O)[O-])N[N+](=O)[O-]` (stereo unspecified), the T/C reads like this: (dose: 6.25 mg/kg/injection, schedule: Q04DX002 (ip), vehicle: saline with Tween-80) 115 % of control [survivor count not shown]; (dose: 12.5 mg/kg/injection, schedule: Q04DX002 (ip), vehicle: saline with Tween-80) 91 % of control [survivor count not shown].

For the compound `CCOP(OCC)c1ccc(N(C)C)cc1`, the T/C is 95 % of control (dose: 12.5 mg/kg/injection, schedule: Q01DX001 (ip), vehicle: Klucel (hydroxypropylcellulose) (HPC)); 99 % of control (dose: 25.0 mg/kg/injection, schedule: Q01DX001 (ip), vehicle: Klucel (hydroxypropylcellulose) (HPC)); 104 % of control (dose: 50.0 mg/kg/injection, schedule: Q01DX001 (ip), vehicle: Klucel (hydroxypropylcellulose) (HPC)).

Regarding `C1OP2OCC1O2`, the T/C is 111 % of control (dose: 50.0 mg/kg/injection, schedule: Q01DX009 (ip), vehicle: saline with Tween-80) and 87 % of control (dose: 200.0 mg/kg/injection, schedule: Q01DX009 (ip), vehicle: saline with Tween-80).

Take `COP(C)(=O)O.CSC(=N)N`: the T/C under setting [1] is 100 % of control [survivor count not shown], the T/C under setting [2] is 99 % of control [survivor count not shown] and the T/C under setting [3] is 101 % of control [survivor count not shown].

As to `CN(C)C(=O)Oc1cccn(C)c1=O`, the T/C reads like this: (dose: 12.5 mg/kg/injection, schedule: Q01DX009 (ip), vehicle: water) 115 % of control; (dose: 25.0 mg/kg/injection, schedule: Q01DX009 (ip), vehicle: water) 99 and 103 % of control; (dose: 50.0 mg/kg/injection, schedule: Q01DX009 (ip), vehicle: water) 100 and 105 % of control; (dose: 100.0 mg/kg/injection, schedule: Q01DX009 (ip), vehicle: water) 108 [5 of 6 alive] and 109 % of control; (dose: 200.0 mg/kg/injection, schedule: Q01DX009 (ip), vehicle: water) 123 and 132 % of control. The survivor count (dose: 400.0 mg/kg/injection, schedule: Q01DX009 (ip), vehicle: water) is 3 of 6.
